Measured values from patent publication US10821115B2, “Compounds that inhibit Mcl-1 protein” (priority 2017, dated 2020).
pIC50: −log10 of the molar value. The structures given here were assigned with low confidence; some may be wrong.

Chains of the proteins cited; added tags and fusions are not shown. Residues count along the entry.
UniProt Q07820, 171-327 limits assumed: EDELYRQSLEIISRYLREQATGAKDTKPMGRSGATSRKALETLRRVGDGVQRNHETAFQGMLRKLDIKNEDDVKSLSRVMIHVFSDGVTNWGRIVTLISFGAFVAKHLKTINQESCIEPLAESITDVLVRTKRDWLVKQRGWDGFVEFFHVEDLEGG

What was measured:
[1] = tested on: human multiple myeloma cell line, OPM-2; assay: Cell viability assay (OPM-2 10 FBS), CellTiter-Glo; format: cell-based; conditions: read-out: OPM-2 10% FBS IC50 IP, OPM-2 cells, 16 h incubation
[2] = molecular target: recombinant human Mcl-1 (residues 171-327) / Bim interaction (Homo sapiens (Human), UniProt Q07820); conditions: read-out: Mcl-1 HTRF IC50; 0.1 nM Mcl-1(171-327), 0.05 nM biotin-Bim (51-76)

SMILES | pIC50 [1] | pIC50 [2]
CO[C@@]1(CN2CCN([C@H](CCO)CC(=O)O)CC2)/C=C/C[C@H](C)[C@@H](C)S(=O)(=O)NC(=O)c2ccc3c(c2)N(C[C@@H]2CC[C@H]21)C[C@@]1(CCCc2cc(Cl)ccc21)CO3 | 6.24 | –
CO[C@@]1(CN2CCN([C@H]3CCOC(=O)C3)CC2)/C=C/C[C@H](C)[C@@H](C)S(=O)(=O)NC(=O)c2ccc3c(c2)N(C[C@@H]2CC[C@H]21)C[C@@]1(CCCc2cc(Cl)ccc21)CO3 | 6.44 | –
CO[C@@]1(CN2CCN3CCN(C(C)C)CC3C2)/C=C/C[C@H](C)[C@@H](C)S(=O)(=O)NC(=O)c2ccc3c(c2)N(C[C@@H]2CC[C@H]21)C[C@@]1(CCCc2cc(Cl)ccc21)CO3 (stereo partly shown) | 6.92 | 9.74
